Results on two substances are retold here after paper doi:10.1101/871640.

Sequences of proteins named here, by UniProt entry; tags and fusion partners are left off.
UniProt P31245: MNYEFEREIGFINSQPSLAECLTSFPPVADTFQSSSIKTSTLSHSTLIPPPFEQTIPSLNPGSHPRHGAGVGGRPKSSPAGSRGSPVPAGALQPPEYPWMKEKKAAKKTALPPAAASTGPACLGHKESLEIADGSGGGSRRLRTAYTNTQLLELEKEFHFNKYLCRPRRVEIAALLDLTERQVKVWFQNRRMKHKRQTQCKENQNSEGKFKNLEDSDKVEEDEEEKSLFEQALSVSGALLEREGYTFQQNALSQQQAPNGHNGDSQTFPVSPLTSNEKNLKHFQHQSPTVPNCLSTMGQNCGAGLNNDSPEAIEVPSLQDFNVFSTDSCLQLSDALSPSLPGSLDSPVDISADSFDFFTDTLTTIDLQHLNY
UniProt O43365: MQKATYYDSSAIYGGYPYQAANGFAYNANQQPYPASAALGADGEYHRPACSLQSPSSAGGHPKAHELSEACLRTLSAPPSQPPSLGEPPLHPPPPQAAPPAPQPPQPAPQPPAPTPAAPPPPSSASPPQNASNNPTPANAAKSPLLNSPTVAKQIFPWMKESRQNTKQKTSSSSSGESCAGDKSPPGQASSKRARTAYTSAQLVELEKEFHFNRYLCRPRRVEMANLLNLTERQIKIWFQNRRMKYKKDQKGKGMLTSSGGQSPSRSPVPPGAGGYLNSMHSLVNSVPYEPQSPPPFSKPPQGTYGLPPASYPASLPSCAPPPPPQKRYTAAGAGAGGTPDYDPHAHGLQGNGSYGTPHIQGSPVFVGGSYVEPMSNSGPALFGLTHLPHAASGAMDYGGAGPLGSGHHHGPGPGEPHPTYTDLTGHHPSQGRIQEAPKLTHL

These are yes or no findings as the source states them, for the method shown. In cells and extracts the contact can be indirect. Some entries that bind do so weakly or less than the wild type. Sequences can lack the tags named with a protein.

The assay addresses T1, GST-tagged MEIS1 (UniProt Q60954).
T1 sequence: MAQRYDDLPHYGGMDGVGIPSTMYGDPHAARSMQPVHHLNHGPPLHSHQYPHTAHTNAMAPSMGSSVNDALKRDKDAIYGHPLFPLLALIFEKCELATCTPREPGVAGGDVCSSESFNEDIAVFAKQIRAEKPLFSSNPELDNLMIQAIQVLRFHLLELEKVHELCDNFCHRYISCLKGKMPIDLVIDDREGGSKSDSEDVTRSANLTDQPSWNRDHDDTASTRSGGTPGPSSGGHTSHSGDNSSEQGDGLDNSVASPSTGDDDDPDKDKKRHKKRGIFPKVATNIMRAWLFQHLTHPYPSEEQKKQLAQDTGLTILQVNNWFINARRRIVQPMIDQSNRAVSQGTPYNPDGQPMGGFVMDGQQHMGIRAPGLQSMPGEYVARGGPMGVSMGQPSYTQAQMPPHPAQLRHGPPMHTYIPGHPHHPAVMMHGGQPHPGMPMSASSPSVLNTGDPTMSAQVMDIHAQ
Kind of assay: co-IP.

As for “FLAG-tagged HOXA2 (from UniProt P31245 1-372)”, the binding entry was “binds”.

Consider “FLAG-tagged HOXA3 (from UniProt O43365 1-443)”, for which the binding entry is reported as “binds”.
